According to PMC7819943, “Rice protein-binding microarrays: a tool to detect cis-acting elements near promoter regions in rice”:
This is one part of the list.

By UniProt entry, the sequences of proteins in these tests, tags left out.
UniProt Q0JBA9, entry or part of it: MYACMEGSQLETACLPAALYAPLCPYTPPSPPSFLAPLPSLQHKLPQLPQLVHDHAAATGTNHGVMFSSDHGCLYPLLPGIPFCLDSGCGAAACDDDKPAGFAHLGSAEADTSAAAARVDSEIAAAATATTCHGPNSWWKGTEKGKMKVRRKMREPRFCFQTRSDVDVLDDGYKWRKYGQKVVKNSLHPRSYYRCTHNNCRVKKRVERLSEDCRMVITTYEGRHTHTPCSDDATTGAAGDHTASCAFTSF

target: OsWRKY34 (Oryza sativa, UniProt Q0JBA9 1-250); assay: protein-binding microarray (RPBM); PBS, 2% BSA, 51.3 ng/ul salmon testes DNA, 50 uM zinc acetate, 200 nM TF, 25 C, 1 h; high values mean tight binding; conditions: protein: recombinant; tags: N-terminal polyhistidine and DsRed monomer fusion (pET32a); label: CyDye5-dUTP incorporated in the synthesized complementary strand; 3' TTTTT single-stranded linker to array surface; dsDNA, one strand shown
In short: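 Polyhistidine-tagged DsRed fusions of transcription factors, joined at the N-terminus, were expressed in E. coli BL21-CodonPlus and isolated on Ni–NTA. They were incubated at 200 nM for 1 h at 25 °C on a custom Agilent array, double-stranded and BSA-blocked, in PBS with 2% BSA, salmon testes DNA and 50 µM zinc acetate. The binding signal is per-feature fluorescence intensity (arbitrary units) read on an Axon 4000B scanner after washing.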

Sequence	binding signal
GTGTTGCCGTTGTATGGGCATATGCATTCTTCCTCACTGCCGGAGTCACCTAGTGCAG	8310 fluorescence intensity (a.u.)
ACTAATGATCTATTATACCTTTGTCCTGCGTTAACCAAAGCGGAGTCACCTAGTGCAG	9050 fluorescence intensity (a.u.)
CCCCAACTCCGATCTCGTCTAAATATCTCTCTCTCTCGTCCGGAGTCACCTAGTGCAG	8820 fluorescence intensity (a.u.)
CGTCTCGTGTCTTCTCGTCTCGACCCATCCATCCATCCCACGGAGTCACCTAGTGCAG	8570 fluorescence intensity (a.u.)
GTCTCCCACGTGTCCCATTCGCATCCGATTTGGCAATCTCCGGAGTCACCTAGTGCAG	10300 fluorescence intensity (a.u.)
TTTGTGAAATTTACTCTTTTCTTTTCGGTTGTTTGCTTTTCGGAGTCACCTAGTGCAG	10200 fluorescence intensity (a.u.)
AACTGCACTTCCATCCACCTGATGTCGAGTTCCAGAAGGACGGAGTCACCTAGTGCAG	8090 fluorescence intensity (a.u.)
CAAAAGAGATGTGGTTAGCGTTGACCCCGTTGACTCGAAGCGGAGTCACCTAGTGCAG	15200 fluorescence intensity (a.u.)
TCCTATCCACATATCCGACGAGTTAAAACAAGCATTCTCTCGGAGTCACCTAGTGCAG	8470 fluorescence intensity (a.u.)
TCACCGTCGCTGTTCGCCTTTGCACGGACGTCACCACCACCGGAGTCACCTAGTGCAG	13700 fluorescence intensity (a.u.)
GACGACATTTATGTTTCGGCATGTGCATACTTCTGTTGTCCGGAGTCACCTAGTGCAG	8670 fluorescence intensity (a.u.)
GCCGCCGCCGCTGCCTCCTTCCCGCGCAGCGCAGCGCGCGCGGAGTCACCTAGTGCAG	8080 fluorescence intensity (a.u.)
TTCCAACTACCTAGCTCAGCTTAGTCTCTGGTTGACCATTCGGAGTCACCTAGTGCAG	8450 fluorescence intensity (a.u.)
CAAAGCAACCATGTATTTGTGACTCCTCTCCGATATTTTCCGGAGTCACCTAGTGCAG	8440 fluorescence intensity (a.u.)
ATCTCGTCCTTCTATACGATTCATTAGCTTAAGGGCAATTCGGAGTCACCTAGTGCAG	8240 fluorescence intensity (a.u.)
GTGTGTGAAATTGATGTTTTGACTGGAACTTCTCTAGCGTCGGAGTCACCTAGTGCAG	8460 fluorescence intensity (a.u.)
GCTACACCATTTGCTGCTCATCTTGTCAACCATGCATAACCGGAGTCACCTAGTGCAG	8260 fluorescence intensity (a.u.)
GAGTGTAACGGGTGGGGTGGTTTGGAAGGTGATGAGGTATCGGAGTCACCTAGTGCAG	11300 fluorescence intensity (a.u.)
CCCGACCCAAACCTCACCGCCGCCGTCGCCGTTGCCGCCGCGGAGTCACCTAGTGCAG	8310 fluorescence intensity (a.u.)
TTCTTGTTGCTCTATGTATGGTGAATTGGCTGCAAATCTACGGAGTCACCTAGTGCAG	8120 fluorescence intensity (a.u.)
AGCCAGTCTCCGACCCCTTCACCAAACGATGCCACGCCGGCGGAGTCACCTAGTGCAG	8860 fluorescence intensity (a.u.)

Sequence	binding signal
AAAGGCCCAACTATACTGTGCCCACATCTCAGCCCACGTACGGAGTCACCTAGTGCAG	8420 fluorescence intensity (a.u.)
TTTCACTTGCGCCAGATTTTTGGCTATTGTCTTTCACTTTCGGAGTCACCTAGTGCAG	8240 fluorescence intensity (a.u.)
ATTCTGTTGCGTCATCATGTTCCTGTCTACAGAGCTATACCGGAGTCACCTAGTGCAG	8840 fluorescence intensity (a.u.)
GCCAGTGCACGGCCCACTTCCGCCGCGCCCGCGCCCGCGCCGGAGTCACCTAGTGCAG	8750 fluorescence intensity (a.u.)
CTCCTTCCATTTGTACCCACGTCTGCTGTCCATTGACCGGCGGAGTCACCTAGTGCAG	9610 fluorescence intensity (a.u.)
CTTCCCGCATTCCGTTCCTGCGCGTGGACCCCACCTGCAGCGGAGTCACCTAGTGCAG	10000 fluorescence intensity (a.u.)
GGTGGGATATCGGGCGCTTGGGCTTCAACTCACACACATGCGGAGTCACCTAGTGCAG	10600 fluorescence intensity (a.u.)
GGGGCTGCTTGGGCTTGTGTTGTTTTTTTGGCAGATGCATCGGAGTCACCTAGTGCAG	19100 fluorescence intensity (a.u.)
AGAAGATCCAGTCTCAGTCTATCTCTCTCATATTCCTTCGCGGAGTCACCTAGTGCAG	8560 fluorescence intensity (a.u.)
GGGACATACGTTTCTGATGTGTGGGTCCATGAGGTTGGTCCGGAGTCACCTAGTGCAG	8210 fluorescence intensity (a.u.)
CTCGTTGGTGATGACAGTGACGGAATCCCCATGTTGACCTCGGAGTCACCTAGTGCAG	8210 fluorescence intensity (a.u.)
TCCTAGCTGATCGACTCCATCCCACTCCTGTTTTTACACACGGAGTCACCTAGTGCAG	11000 fluorescence intensity (a.u.)
TTGTTTTTCTTGTTTTGCTTTTTTCTCAATTGGATAGTCCCGGAGTCACCTAGTGCAG	12400 fluorescence intensity (a.u.)
AACGTAATTTGGCTCTCGCGTTCCTAACATGCTCTCTCGACGGAGTCACCTAGTGCAG	10600 fluorescence intensity (a.u.)
GTGGTTTCCGTGTCCAATATTTGACCGTCCATCTTATTTACGGAGTCACCTAGTGCAG	8090 fluorescence intensity (a.u.)
TATTAAATCATTTAATTTTAGCTATTGTTTTTTATTTATTCGGAGTCACCTAGTGCAG	9250 fluorescence intensity (a.u.)
TCCGGCCCATAAGTGCTGCTTCTGCTTCTTCTTCAGCAACCGGAGTCACCTAGTGCAG	11100 fluorescence intensity (a.u.)
ATTCTGTTGTTTATCCATCTTCCTTGACAGTTCTTGCATTCGGAGTCACCTAGTGCAG	11000 fluorescence intensity (a.u.)
GGGCAATGTTCTTGTGTTGTTTATCTTGGAATCAAAAGCTCGGAGTCACCTAGTGCAG	10900 fluorescence intensity (a.u.)
TCGGCTCGGCTCGGCTACTCCTCTCTCTCTCTTTCTCTCCCGGAGTCACCTAGTGCAG	11500 fluorescence intensity (a.u.)
ACTCATCTGACCTCCCTCCTTTCATATGTACTGTTTGTTACGGAGTCACCTAGTGCAG	8960 fluorescence intensity (a.u.)

Sequence	binding signal
TTCCATGCTTTTTTCTTGTCCACTCTGCTATCTGGACTCTCGGAGTCACCTAGTGCAG	10700 fluorescence intensity (a.u.)
CTTGTTCCATCCCGTTATAGGTCGTAGTCGCCCATGCATTCGGAGTCACCTAGTGCAG	8170 fluorescence intensity (a.u.)
ATTATTTCACACTTTAGCTACTCCCAATATAATTATTTTCCGGAGTCACCTAGTGCAG	9310 fluorescence intensity (a.u.)
AATTTTCTCTGTTAATTTTTTGGGTAAAATTCTTCCGTTCCGGAGTCACCTAGTGCAG	8720 fluorescence intensity (a.u.)
GACAGCCACTGACGTCACCCCATGTCCTTCTTCTCGGCTACGGAGTCACCTAGTGCAG	11400 fluorescence intensity (a.u.)
GGGGCCCACATCACTCTCTCACTTACATGTGGGGCCCACGCGGAGTCACCTAGTGCAG	8400 fluorescence intensity (a.u.)
CAGGCGACCACCTCCAGCTCCGCGCCATCTCCATGTCATCCGGAGTCACCTAGTGCAG	10800 fluorescence intensity (a.u.)
CATCCGTTGAAGGTGGGTTTTTGTGCTGTTAAATTCCGGACGGAGTCACCTAGTGCAG	8020 fluorescence intensity (a.u.)
AGGAAAATCTTAGCGTTCTCATTTACCATTCAATTTTTTTCGGAGTCACCTAGTGCAG	11300 fluorescence intensity (a.u.)
ATCGGGTTGTTGTTGTGTCATTCTCTGCCAAATGGGCCAGCGGAGTCACCTAGTGCAG	13100 fluorescence intensity (a.u.)
GGGGAGGAAAGCATGGTGAAAATTTGCTAAATATTGTGAACGGAGTCACCTAGTGCAG	10800 fluorescence intensity (a.u.)
CCTAATTTTTTACCCGATCGACTTCGCCATGGAAAATTTTCGGAGTCACCTAGTGCAG	10700 fluorescence intensity (a.u.)
CTACAATTTTGTCTTGGTATATTGCTGCTGGTATTCTTTTCGGAGTCACCTAGTGCAG	11400 fluorescence intensity (a.u.)
CCACACTTCCTTTTGATTTTTTCTTTTTTTTCATCCTACCCGGAGTCACCTAGTGCAG	12200 fluorescence intensity (a.u.)
TCGGGCGTCCGATCTGGGGTGGGAAAATCGACCACCCACGCGGAGTCACCTAGTGCAG	8140 fluorescence intensity (a.u.)
CCATACACCCGCCGCCGCCGCTATCTCACACGTCTCGCCTCGGAGTCACCTAGTGCAG	11400 fluorescence intensity (a.u.)
AACTGCATATTGTTGTTGTCATCTTTGTTCAAGGTGCAGGCGGAGTCACCTAGTGCAG	8730 fluorescence intensity (a.u.)
AACCTTACAGCCACAGCGAGTCCCTAGCAACAGCATCGAACGGAGTCACCTAGTGCAG	8100 fluorescence intensity (a.u.)
CTCTCTCTCTCTCGTTTTCCTCTCCTCTCTCGGTCCTCTCCGGAGTCACCTAGTGCAG	8280 fluorescence intensity (a.u.)
CACTCTTATTGATATACTCTTTTGTACAGAGACTAATAGTCGGAGTCACCTAGTGCAG	8110 fluorescence intensity (a.u.)
ACTAATATGCCCTTGGAAATCGACGGTTTGGATTATTTCTCGGAGTCACCTAGTGCAG	8520 fluorescence intensity (a.u.)

Exported in CSV form: part of the list above.
Sequence,binding signal
CATCCGTTGAAGGTGGGTTTTTGTGCTGTTAAATTCCGGACGGAGTCACCTAGTGCAG,8020 fluorescence intensity (a.u.)
AGGAAAATCTTAGCGTTCTCATTTACCATTCAATTTTTTTCGGAGTCACCTAGTGCAG,11300 fluorescence intensity (a.u.)
ATCGGGTTGTTGTTGTGTCATTCTCTGCCAAATGGGCCAGCGGAGTCACCTAGTGCAG,13100 fluorescence intensity (a.u.)
GGGGAGGAAAGCATGGTGAAAATTTGCTAAATATTGTGAACGGAGTCACCTAGTGCAG,10800 fluorescence intensity (a.u.)
CCTAATTTTTTACCCGATCGACTTCGCCATGGAAAATTTTCGGAGTCACCTAGTGCAG,10700 fluorescence intensity (a.u.)
CTACAATTTTGTCTTGGTATATTGCTGCTGGTATTCTTTTCGGAGTCACCTAGTGCAG,11400 fluorescence intensity (a.u.)
CCACACTTCCTTTTGATTTTTTCTTTTTTTTCATCCTACCCGGAGTCACCTAGTGCAG,12200 fluorescence intensity (a.u.)
TCGGGCGTCCGATCTGGGGTGGGAAAATCGACCACCCACGCGGAGTCACCTAGTGCAG,8140 fluorescence intensity (a.u.)
CCATACACCCGCCGCCGCCGCTATCTCACACGTCTCGCCTCGGAGTCACCTAGTGCAG,11400 fluorescence intensity (a.u.)
AACTGCATATTGTTGTTGTCATCTTTGTTCAAGGTGCAGGCGGAGTCACCTAGTGCAG,8730 fluorescence intensity (a.u.)
AACCTTACAGCCACAGCGAGTCCCTAGCAACAGCATCGAACGGAGTCACCTAGTGCAG,8100 fluorescence intensity (a.u.)
CTCTCTCTCTCTCGTTTTCCTCTCCTCTCTCGGTCCTCTCCGGAGTCACCTAGTGCAG,8280 fluorescence intensity (a.u.)
CACTCTTATTGATATACTCTTTTGTACAGAGACTAATAGTCGGAGTCACCTAGTGCAG,8110 fluorescence intensity (a.u.)
ACTAATATGCCCTTGGAAATCGACGGTTTGGATTATTTCTCGGAGTCACCTAGTGCAG,8520 fluorescence intensity (a.u.)

Later entries.

Sequence	binding signal
GGGGTGAAGATTTCTGGTATTGAGGATTATGTTGGCTGGTCGGAGTCACCTAGTGCAG	8360 fluorescence intensity (a.u.)
GGATGACACGTTCTCTATTCGTTCCAAACCTTATGAACCGCGGAGTCACCTAGTGCAG	9220 fluorescence intensity (a.u.)
AAGTAATAAGGAACTTGCGTCAATCGATTTGTTTAGTTTCCGGAGTCACCTAGTGCAG	9520 fluorescence intensity (a.u.)
AATTATATTTTTGTTCACAATCAGTACTATGGTTTTTTTTCGGAGTCACCTAGTGCAG	8500 fluorescence intensity (a.u.)
TTTAAACCGCTGGGTCTTTTTTACTTGCGAGCTCAACTGTCGGAGTCACCTAGTGCAG	8140 fluorescence intensity (a.u.)
TACTTTTTTATAAATACTCTTTTCGTCTCATTTTAAGTACCGGAGTCACCTAGTGCAG	10300 fluorescence intensity (a.u.)
ACTTTTTAAAACATGTTTGACCGTTCATCTTATTCAAAAACGGAGTCACCTAGTGCAG	8410 fluorescence intensity (a.u.)
CCACTCCTGTCCTGTCATCTTGTACACTATCGCGTTGCTGCGGAGTCACCTAGTGCAG	9040 fluorescence intensity (a.u.)
TCCTTGTTTGGGTTGGGTGCGGACTGGGGAAGACGACACGCGGAGTCACCTAGTGCAG	14100 fluorescence intensity (a.u.)
ATTGCAACAGTTGCCGCCATGTCTTTCACGCGCCTTGCTACGGAGTCACCTAGTGCAG	9860 fluorescence intensity (a.u.)
ATAACACATATGTCTCTCTCTATATATGGTCTCATGGTTACGGAGTCACCTAGTGCAG	10800 fluorescence intensity (a.u.)
CGTCAAGAGTCGTTGTTTCGTGTCGTCTATATCTCTCCGCCGGAGTCACCTAGTGCAG	9770 fluorescence intensity (a.u.)
TGTTGATGGGTAGGTTTTTTCTAAGATGGAAGACATTAATCGGAGTCACCTAGTGCAG	8170 fluorescence intensity (a.u.)
AACCCAACTCCACCACCGATCACTTGACTCTCACGCACACCGGAGTCACCTAGTGCAG	13700 fluorescence intensity (a.u.)
CCTGTTTTTTCTTTCCGTTTTTATTTGAATTCCCTTTTGACGGAGTCACCTAGTGCAG	9910 fluorescence intensity (a.u.)
ATCTCTTAGTTCTGCCATCAGCCACATAGCTTATTTTTAGCGGAGTCACCTAGTGCAG	11300 fluorescence intensity (a.u.)
TCTTCCTTTTCCATTATCATGAGCATGTCTTCCCCAAAACCGGAGTCACCTAGTGCAG	8060 fluorescence intensity (a.u.)
TGGGCCGCCTACCCATCGTCGCCGTCGCGTTTGCCATCCGCGGAGTCACCTAGTGCAG	9770 fluorescence intensity (a.u.)
CCATTTCCATTTCCATTTGTCAGTATTACATAGGCCCTGTCGGAGTCACCTAGTGCAG	8950 fluorescence intensity (a.u.)
GACATTCGCTACTTCACCGACTCAACGATGTACTCCACCGCGGAGTCACCTAGTGCAG	8920 fluorescence intensity (a.u.)
GCAATTGCCCGTCACGCCTCGTCTTCCTCGTCGTCTTGCACGGAGTCACCTAGTGCAG	13500 fluorescence intensity (a.u.)
